{"source": "patent US20030144190A1", "about": "“Method of modulating and antiapoptotic and antiapoptotic pathways in cells” (priority 2003, published 2003)", "assay_type_in_all_cases": "cell-based, rat", "key": {"[1]": {"tested_on": "CREF", "experiment": "Cell cycle arrest by cytostatic agents (FACS analysis of DNA content)"}, "[2]": {"tested_on": "CREF/RasV12", "experiment": "Apoptosis by flow cytometry (cells with hypodiploid DNA content) in Ras-transformed fibroblasts", "details": "24 h"}, "[3]": {"tested_on": "CREF", "experiment": "Apoptosis by flow cytometry in non-transformed fibroblasts", "details": "75 nM rapamycin, 24 h"}, "[4]": {"tested_on": "CREF/RasV12", "experiment": "Metabolic labeling and protein synthesis assay ([35S] methionine, TCA precipitable radioactivity)", "details": "4 h pretreatment, different concentrations, 3 h labeling"}}, "note": "For some assays here: At least one structure is not confirmed: it was looked up by name or label, or the drawing left a doubt. Some results were stated once for a whole list of compounds, not compound by compound. Some compounds share one range, which may span the group rather than tell each member.", "data": [{"smiles": "CC[C@@]1(O)C(=O)OCc2c1cc1n(c2=O)Cc2cc3ccccc3nc2-1", "note": "[camptothecin]", "values": [{"measurement": "CREF reversibly arrested at the expected cycle locus", "setting": "[1]; 75 nM, G2", "value": "75 to 80", "unit": "%"}]}, {"smiles": "NC(=O)NO", "note": "[hydroxyurea]", "values": [{"measurement": "CREF reversibly arrested at the expected cycle locus", "setting": "[1]; 1.5 mM, late G1/early S", "value": "75 to 80", "unit": "%"}]}, {"smiles": "CC[C@H](C)C(=O)O[C@H]1C[C@@H](C)C=C2C=C[C@H](C)[C@H](CC[C@@H]3C[C@@H](O)CC(=O)O3)[C@H]21", "note": "[lovastatin]", "values": [{"measurement": "CREF reversibly arrested at the expected cycle locus", "setting": "[1]; 5 μM, late G1", "value": "75 to 80", "unit": "%"}]}, {"smiles": "CO[C@H]1C[C@@H]2CC[C@@H](C)[C@@](O)(O2)C(=O)C(=O)N2CCCC[C@H]2C(=O)O[C@H]([C@H](C)C[C@@H]2CC[C@@H](O)[C@H](OC)C2)CC(=O)[C@H](C)/C=C(\\C)[C@@H](O)[C@@H](OC)C(=O)[C@H](C)C[C@H](C)/C=C/C=C/C=C/1C", "note": "[rapamycin]", "values": [{"measurement": "apoptosis in cells expressing activated Ras, applied as a single agent", "setting": "[2]; 75 nM rapamycin, regular growth medium", "value": "stimulated apoptosis"}, {"measurement": "Ras-dependent resistance to drug-induced cell death", "setting": "[2]; 75 nM rapamycin, with 5 μM lovastatin or 75 nM camptothecin", "value": "completely abrogated"}, {"measurement": "lovastatin-induced apoptosis in the presence of translational inhibitors", "setting": "[2]; 5 μM lovastatin, doses equipotent on protein synthesis", "value": "sensitize Ras-transformed cells to lovastatin-induced apoptosis"}, {"measurement": "pro-apoptotic effect in non-transformed fibroblasts", "setting": "[3]", "value": "not observed"}, {"measurement": "protein synthesis", "setting": "[4]", "value": "dose-dependent decline"}]}]}
